Results taken from the supplement of paper PMC3334620.
The full ranking holds about 33,000 sequences; the median of “E-score (-0.5 to 0.5)” is about -0.016, and the highest 2% start at about 0.3. Some of the results follow.

Target: T1, Yer184c (UniProt P39961)
T1 sequence: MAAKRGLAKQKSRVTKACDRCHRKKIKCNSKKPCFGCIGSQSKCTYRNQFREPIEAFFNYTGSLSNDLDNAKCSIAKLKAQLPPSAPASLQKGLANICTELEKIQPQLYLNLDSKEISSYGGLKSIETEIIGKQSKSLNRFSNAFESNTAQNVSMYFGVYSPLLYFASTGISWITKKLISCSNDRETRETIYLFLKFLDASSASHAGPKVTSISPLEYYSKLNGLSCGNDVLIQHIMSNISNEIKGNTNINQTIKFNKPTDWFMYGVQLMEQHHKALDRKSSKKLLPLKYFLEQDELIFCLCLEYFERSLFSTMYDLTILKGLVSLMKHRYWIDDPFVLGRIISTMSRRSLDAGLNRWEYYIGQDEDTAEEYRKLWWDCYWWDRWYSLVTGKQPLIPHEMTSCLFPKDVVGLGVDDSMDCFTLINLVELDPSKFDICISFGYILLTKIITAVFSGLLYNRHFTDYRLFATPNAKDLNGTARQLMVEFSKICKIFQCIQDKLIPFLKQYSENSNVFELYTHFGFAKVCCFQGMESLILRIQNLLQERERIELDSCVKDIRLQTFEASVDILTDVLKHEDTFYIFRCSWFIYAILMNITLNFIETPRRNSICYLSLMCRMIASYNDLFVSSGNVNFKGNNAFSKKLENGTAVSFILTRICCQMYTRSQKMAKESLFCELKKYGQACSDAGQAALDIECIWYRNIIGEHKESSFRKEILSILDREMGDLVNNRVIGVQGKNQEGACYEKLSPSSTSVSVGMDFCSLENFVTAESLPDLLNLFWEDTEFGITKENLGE
Experiment: PBM E-score (8-mer binding enrichment) (E-score (-0.5 to 0.5)); higher = stronger / more preferred TF binding
Settings: protein concentration: 100 nM; construct: GST-full length
Summary of the method: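 Universal all-10-mer Agilent arrays, fresh or stripped once, were converted to double-stranded form by primer extension. GST-tagged yeast transcription factors from PURExpress in vitro transcription/translation, full-length or DNA-binding domain only, were applied at about 100-200 nM and detected with fluorescent anti-GST. After masliner normalisation, the Universal PBM Analysis Suite scored each ungapped eight-base word together with its reverse complement by E-score.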

| Sequence | PBM E-score |
| --- | --- |
| ATTCCGAC | 0.211 |
| AACCACAA | 0.0437 |
| GCGCCTTA | -0.00956 |
| AGTGCGAT | -0.115 |
| TCTGCCCA | -0.0708 |
| GGTTTTGA | 0.177 |
| GGTTCAGA | -0.0461 |
| CTTTTGGA | 0.0266 |
| AGAGGACC | -0.232 |
| CCGATACC | 0.0384 |
| TCCAGAGA | -0.149 |
| TCAATAAA | 0.141 |
| CCCTCACA | -0.0867 |
| ACCATCTC | -0.0756 |
| CCTCCTGC | -0.278 |
| AACCTTGG | -0.201 |
| CGCATTAA | 0.135 |
| CTGGACAA | -0.116 |
| CAACCCAG | -0.222 |
| ACCACCGA | -0.0296 |
| CGACAAAA | 0.229 |
| GACCTCAA | 0.0464 |
| CAGCGAAG | -0.0684 |
| CCCACCGC | 0.00758 |
| ATCTCCTG | 0.0927 |

| Sequence | PBM E-score |
| --- | --- |
| GCACGCCA | -0.149 |
| ATTGTTCG | 0.346 |
| CAACCGAG | 0.143 |
| GCTCGAAA | 0.106 |
| GCGGCGCC | 0.299 |
| TCTCTAAA | 0.00454 |
| ATAGAGGC | -0.187 |
| CCATATGA | -0.127 |
| ATTCAGGA | 0.0123 |
| CTTCACGA | -0.182 |
| AGTATCGC | -0.109 |
| GCATGGTA | -0.0508 |
| AAAGAACT | 0.102 |
| CTTTTCGA | 0.0568 |
| GTATCGAA | 0.0942 |
| TATTCGCA | 0.0122 |
| CGAACAAA | 0.285 |
| ATGTCACG | -0.101 |
| CGATGATC | -0.0994 |
| AGGGAGGC | -0.301 |
| ACTCGCGG | 0.192 |
| AAGACGAG | -0.109 |
| GAGGCAAA | 0.0232 |
| GACGGTGC | -0.132 |
| AGCGTTGA | -0.0726 |

| Sequence | PBM E-score |
| --- | --- |
| GTGGCCAC | -0.0584 |
| ATGAGGTG | -0.235 |
| TGGACACA | -0.0238 |
| GCAGGGTA | -0.112 |
| AATCCCTG | -0.233 |
| ATCGCTCG | -0.0215 |
| ACGATAAC | 0.0512 |
| ACTACACT | -0.0405 |
| ACTGGAAC | 0.0557 |
| TTTATAAA | 0.348 |
| AGTCGATG | -0.0896 |
| AAGCCAGT | -0.229 |
| CAGACCAC | -0.149 |
| TACCGAGA | 0.255 |
| AAGCCCCG | -0.138 |
| AATTTGAC | 0.166 |
| GACTCAGA | -0.128 |
| TTGAGCAA | 0.0285 |
| GCAGAGAC | -0.274 |
| GAGTACGC | -0.0395 |
| ACTGCATC | -0.0841 |
| CGGTTAAA | 0.205 |
| GAGGTTGA | -0.0617 |
| ATTATAAA | 0.249 |
| CCTAGCGA | -0.239 |

Seven neighbouring entries out of the list so far, quoted:

| Sequence | PBM E-score |
| --- | --- |
| CTTCACGA | -0.182 |
| AGTATCGC | -0.109 |
| GCATGGTA | -0.0508 |
| AAAGAACT | 0.102 |
| CTTTTCGA | 0.0568 |
| GTATCGAA | 0.0942 |
| TATTCGCA | 0.0122 |

Following part:

| Sequence | PBM E-score |
| --- | --- |
| TCCGTAGA | 0.204 |
| TAAACCTA | 0.0218 |
| CAGGCTTA | -0.0831 |
| CTGGGTAC | -0.114 |
| AGTGGAAC | -0.0214 |
| AGGTCACT | -0.166 |
| ACGGTAGG | -0.329 |
| AGCGAACC | -0.0604 |
| CTCAACCA | 0.00025 |
| CGACCCCA | -0.137 |
| ACGGTTGG | -0.0688 |
| ACCAGTAC | -0.114 |
| ACTAGGCT | -0.109 |
| CACGCACC | -0.066 |
| CTGTCTGC | -0.122 |
| CCTTCTAG | -0.237 |
| AGGCTAGA | -0.153 |
| ATTCGCTA | -0.0866 |
| AAACCGTA | 0.0356 |
| AATCATCC | 0.024 |
| AGGGCGCC | -0.12 |
| CATACGGC | 0.058 |
| GATATAGA | 0.124 |
| CTCATCAA | 0.07 |
| CGATAGCA | -0.114 |

| Sequence | PBM E-score |
| --- | --- |
| ATGATCTA | 0.0553 |
| AATGAACG | -0.0978 |
| AATACGAG | 0.0402 |
| AACCTACC | -0.134 |
| AACCATCC | 0.00041 |
| CAGGCTCC | -0.18 |
| AACAAAAT | 0.0461 |
| CAGCCCAC | -0.115 |
| AGCTAGGG | -0.179 |
| ACTCTCGA | -0.0924 |
| ACAGTCCG | 0.00379 |
| ACCCTATG | -0.131 |
| CGTATTAA | 0.0867 |
| GCGGGGCC | -0.00766 |
| TATAAAGA | 0.0956 |
| CCCGGCCC | 0.161 |
| ACTAAGTC | -0.0184 |
| ACTATCGC | -0.0823 |
| CTTCTTAC | 0.0607 |
| AAAGCTGT | 0.0157 |
| GCCAATAA | 0.0459 |
| GCATGGCC | -0.224 |
| GCCTTCCC | -0.218 |
| TCGTACGA | 0.0527 |
| ATATAATC | 0.142 |

| Sequence | PBM E-score |
| --- | --- |
| AACCACGG | -0.0108 |
| CCCAGCGG | -0.118 |
| ATTGGGCC | 0.0463 |
| CGGCATTA | 0.416 |
| AGGAGGAC | -0.337 |
| CCGCTCTA | 0.0749 |
| CTGGGGGA | -0.244 |
| CAATGGGG | -0.192 |
| CATAGTTC | 0.0414 |
| CGAACACC | 0.0223 |
| CGGCGAGA | 0.192 |
| ATGCCACC | -0.28 |
| CTACATAC | -0.0774 |
| ATTATAGC | 0.0251 |
| CCTGCATC | -0.175 |
| AATGCCAG | -0.0319 |
| ATGCGTAG | -0.0396 |
| ACGATACT | -0.14 |
| CGCCAGCA | -0.175 |
| TATATGCA | -0.0124 |
| GTAGTAGA | 0.0474 |
| CAACAACA | 0.162 |
| CAGTGGAC | -0.0743 |
| ATGCCTCA | -0.0508 |
| CGGAGCAG | 0.232 |

| Sequence | PBM E-score |
| --- | --- |
| GCTGGCGA | -0.123 |
| AGTACGAA | 0.271 |
| TAGTCGAA | -0.0527 |
| ATTAATCG | 0.16 |
| GGCTCTGA | -0.0422 |
| ATCACTTA | 0.0177 |
| GTGGGGCA | -0.175 |
| CTGTAGGC | -0.0897 |
| TCTCATCA | -0.0788 |
| CTTACTTA | -0.174 |
| CACGTTAC | -0.15 |
| GGTGTAAA | -0.098 |
| CTACACTA | -0.0776 |
| ATAGTTAC | 0.0694 |
| ACAGGTCG | -0.258 |
| AACCAACC | -0.161 |
| AATTGTGG | -0.189 |
| GATTTAAC | 0.13 |
| CTACGGCA | 0.258 |
| GTCGTTCA | 0.042 |
| CCGGCCAA | 0.239 |
| GGTTTCTA | 0.0568 |
